Some of these results come from one statement about several compounds together.
What was measured:
Type in all cases: in vivo
Puccinia recondita = assay: Action against Puccinia recondita/wheat (brownrust on wheat); conditions: wheat cv. Arina, 0.02% active ingredient spray, preventive 1 day, assessed 10 days after inoculation
Botrytis cinerea [1] = assay: Action against Botrytis cinerea/grape (Botrytis on grapes); conditions: grape seedlings cv. Gutedel, 0.002% active ingredient spray, preventive 2 days, 4 days incubation
Erysiphe graminis = assay: Action against Erysiphe graminis/barley (powdery mildew on barley); conditions: barley cv. Express, 0.02% active ingredient spray, preventive 1 day, 6 days incubation
Botrytis cinerea [2] = assay: Action against Botrytis cinerea/tomato (Botrytis on tomatoes); conditions: tomato plants cv. Roter Gnom, 0.002% active ingredient spray, preventive 2 days, 4 days incubation
Botrytis cinerea [3] = assay: Action against Botrytis cinerea/apple (Botrytis on apple fruits); conditions: apple fruit cv. Golden Delicious, 30 μl droplets 0.002% active ingredient, 7 days incubation
Venturia inaequalis = assay: Action against Venturia inaequalis/apple (scab on apple); conditions: apple seedlings cv. McIntosh, 0.02% active ingredient spray, preventive 1 day
Septoria nodorum = assay: Action against Septoria nodorum/wheat (Septoria leaf spot on wheat); conditions: wheat cv. Arina, 0.02% active ingredient spray, preventive 1 day, assessed 11 days after inoculation
Podosphaera leucotricha = assay: Action against Podosphaera leucotricha/apple (powdery mildew on apple); conditions: apple seedlings cv. McIntosh, 0.002% active ingredient spray, preventive 1 day, 12 days incubation
Pyrenophora teres = assay: Action against Pyrenophora teres/barley (net blotch on barley); conditions: barley cv. Express, 0.002% active ingredient spray, preventive 2 days, assessed 4 days after inoculation

Compound | infestation (Puccinia recondita) | infestation (Botrytis cinerea [1]) | infestation (Erysiphe graminis) | infestation (Botrytis cinerea [2]) | infestation (Botrytis cinerea [3]) | infestation (Venturia inaequalis) | infestation (Septoria nodorum) | infestation (Podosphaera leucotricha) | infestation (Pyrenophora teres)
Cn1cc(C(=O)Nc2ccccc2-c2ccc(Br)cc2)c(C(F)F)c1 [Compound 1.2, 1-methyl-4-difluoromethyl-1H-pyrrole-3-carboxylic acid (4′-bromobiphenyl-2-yl) amide] | 0-5% | < 10% | < 20% | < 10% | < 10% | < 20% | < 20% | < 20% | < 20%
Cn1cc(C(=O)Nc2ccccc2-c2ccc(Br)cc2)c(C(F)(F)F)c1 [Compound 1.1, 1-Methyl-4-trifluoromethyl-1H-pyrrole-3-carboxylic acid (4′-bromobiphenyl-2-yl) amide] | 0-5% | < 10% | < 20% | < 10% | < 10% | < 20% | < 20% | < 20% | < 20%

Source: patent publication US20040082477A1, “Pyrrolecarboxamides for the use as fungicdes” (priority 2001, published 2004)
